In all, about 350,000 compounds went through this assay and about 220 (0.063%) were called active. The shares of active, inactive and inconclusive entries below differ from those in the screen. The call rests on the fitted dose curve; in most records, active means well fitted activation curve with a large enough effect; inconclusive means small, poorly fitted or top-dose-only effect; inactive means no such curve, though single readings can be large or run the other way. Potencies beside an inconclusive call are fits to weak or partial responses and may not hold up.
Experiment: qHTS for Activators of Integrin-Mediated Alleviation for Muscular Dystrophy; further: nearly all actives have a fitted effect of over 60% in size;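 on activation: 100% = response of the positive control SU9516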
Conditions: alpha7betagal myoblasts, beta-gal FDG fluorescence, 48 h; activation: at 38.3 µM (top of the series)
Outline: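 Alpha7betagal+/- myoblasts (passage 13) were plated 16-24 hr, then exposed to compounds (1:260 dilution of DMSO stock) for 48 hours at 37C. After MPER lysis, β-galactosidase reporter activity was read as FDG fluorescence (ex 480/em 540) after 30 minutes.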
Potency means the concentration at half of the fitted maximal effect.

| SMILES | activation | Potency |
| --- | --- | --- |
| CCCC(=O)OCCNc1cc(SCc2ccco2)c2nonc2c1[N+](=O)[O-] | inactive: -9.16% | – |
| COc1ccc(C(=O)N/N=C/c2c(CO)cnc(C)c2O)cc1 | – | inconclusive: 5.01 µM [activator, single point] |
| Cc1cc(C(=O)Nc2ccc(Br)cn2)sc1C | – | inconclusive: 2.82 µM [activator, single point] |
| O=C(Nc1ccc(NC(=O)c2ccc([N+](=O)[O-])o2)cc1Cl)c1ccco1 | – | inconclusive: 10 µM [activator, single point] |
| O=C(NCc1ccc(F)cc1)C1CC(=O)N(C2CCCCCCC2)C1 (configuration not stated) | inactive: 0.466% | – |
| Cc1cc(/C(N)=N/OC(=O)c2cccc(Cl)c2)no1 | inactive: -7.87% | – |
| CC(C)(C)CN1CCC(Oc2cccc(C(=O)N3CCC[C@H]3CO)c2)CC1 | inactive: 15.3% | – |
| Cc1cc(C)cc(C(=O)/C=C2\NC(=O)CS2)c1 | – | inconclusive: 2.24 µM [activator, partial curve, poor fit] |
| O=C(O)c1cccc(N/N=C/c2cn(-c3ccccc3)nc2-c2cccs2)c1 | – | inconclusive: 0.447 µM [activator, full curve, poor fit] |
| CCOC(=O)N=Nc1c(O)n(Cc2ccccc2)c2ccccc12 | – | inconclusive: 28.2 µM [activator, single point] |
| O=C(Nc1ccc(Cl)cc1N1CCOCC1)C1CCCO1 (configuration not stated) | inactive: 9.17% | – |
| CCCNc1sc(S(=O)(=O)CCC)nc1S(=O)(=O)c1ccc(C)cc1 | – | inconclusive: 0.891 µM [activator, full curve, poor fit] |
| CC(=O)Nc1cccc(NC(=O)c2cccc3cccnc23)c1 | – | inconclusive: 0.501 µM [activator, full curve, poor fit] |
| Nn1c(SCc2ccc(C(=O)O)cc2)nnc1-c1ccc(Cl)cc1Cl | – | inconclusive: 15.8 µM [activator, single point] |
| COc1ccc(C(=O)C(CN2CCOCC2)c2ccccc2)cc1F (configuration not stated) | inactive: -45.6% | – |
| CCCN=Cc1c(CCC)[nH]n(-c2nc3ccccc3s2)c1=O | inactive: 14.8% | – |
| CCC(C)C(NC(=O)c1ccccc1)C(=O)N1CCN(C(=O)c2ccccc2)CC1 (configuration not stated) | inactive: 0.0032% | – |
| Cc1ccc(NC(=O)C2CCN(C(=O)OC(C)(C)C)CC2)cc1S(=O)(=O)N1CCCCC1 | – | inconclusive: 4.47 µM [activator, single point] |
| Cc1[nH]c(=O)[nH]c(=O)c1S(=O)(=O)N1CCCc2ccccc21 | – | inconclusive: 14.1 µM [activator, partial curve, poor fit] |
| Cc1cc(=O)nc2c3ccccc3n(CC(=O)NCCC3=CCCCC3)n12 | – | inconclusive: 5.01 µM [activator, single point] |
| Cc1ccc(OCc2nc(-c3ccccn3)no2)c(Br)c1 | inactive: 14.3% | – |
| CC(=O)NCCn1c(SCC(=O)NC2CCCCC2)nc2ccccc2c1=O | inactive: 0% | – |
| O=C(Nc1cccc(C(F)(F)F)c1)c1cccnn1 | – | inconclusive: 0.447 µM [activator, full curve, poor fit] |
| COCCCn1c(SCC(=O)O)nc2cc(OC)c(OC)cc2c1=N | – | inconclusive: 6.31 µM [activator, partial curve, poor fit] |

| SMILES | activation | Potency |
| --- | --- | --- |
| O=C(N/N=C/c1ccc(OCc2ccccc2)cc1)c1ccncc1 | – | inconclusive: 1.12 µM [activator, partial curve, poor fit] |
| O=C(NCc1ccccc1)c1ccc(S(=O)(=O)Nc2cccc(C(F)(F)F)c2)cc1 | – | inconclusive: 2.51 µM [activator, single point] |
| CCCCCCNC(=O)Cc1c(O)c2ccccc2[nH]c1=O | inactive: 6.09% | – |
| CS(=O)(=O)N1CCc2cc(-c3csc(NC(=O)C(c4ccccc4)c4ccccc4)n3)ccc21 | – | inconclusive: 28.2 µM [activator, single point] |
| COc1cc(C(=O)N(Cc2cc3cc(C)ccc3[nH]c2=O)CC2CCCO2)cc(OC)c1OC (configuration not stated) | inactive: 6.78% | – |
| Nc1cc2nn(-c3ccccc3)nc2cc1Cl | inactive: 0.314% | – |
| CCOC(=O)c1ccc(N2C(=O)C(CC(=O)NC)N(CCc3ccc(OC)c(OC)c3)C2=S)cc1 (configuration not stated) | inactive: -4.96% | – |
| Cc1cc(NC(=S)N(Cc2cccc(Br)c2)CC2CCC(C(=O)O)CC2)ccc1Cl (configuration not stated) | – | inconclusive: 3.16 µM [activator, single point] |
| COCCN(CC(=O)Nc1cccc(C)c1C)C(=O)c1ccc(-n2cccn2)cc1 | – | inconclusive: 12.6 µM [activator, single point] |
| CC(=O)Nc1ccc(NC(=O)CCS(=O)(=O)c2ccc3c(c2)oc(=O)n3C)cc1 | – | inconclusive: 1.12 µM [activator, partial curve, poor fit] |
| COc1ccc(-c2nc(-c3cccs3)no2)cc1 | – | inconclusive: 0.355 µM [activator, full curve, poor fit] |
| CCCc1nc(NC(=O)c2ccccc2)nc(NC(=O)c2ccccc2)n1 | – | inconclusive: 0.794 µM [activator, partial curve, poor fit] |
| COc1ccc(-c2ccc(C#N)c(SCC(=O)NC3CC3)n2)cc1OC | – | inconclusive: 0.447 µM [activator, partial curve, poor fit] |
| Cc1ccc(Cn2c(=O)c3ccccc3n3nc(C)cc23)cc1 | – | inconclusive: 28.2 µM [activator, single point] |
| COc1ccc(CN2[C@@H](CC(C)=O)c3cc(C(F)(F)F)ccc3S2(=O)=O)cc1 | inactive: -10.4% | – |
| Cc1c(NC(=O)c2cccc(-c3cc4ccccc4oc3=O)c2)cccc1-c1nc2ncccc2o1 | inactive: 21.5% | – |
| O=C(O)CCCNC(=O)c1cncc(Br)c1 | inactive: 0.2% | – |
| CCSc1nnc(NC(=O)COc2ccccc2[N+](=O)[O-])s1 | – | inconclusive: 0.501 µM [activator, full curve, poor fit] |
| COc1ccc(OCC(=O)N(Cc2sccc2C)C2CCS(=O)(=O)C2)cc1 (configuration not stated) | – | inconclusive: 3.16 µM [activator, single point] |
| CC(=O)n1cc(/C=N/NC(=O)c2cccc(O)c2)c2ccccc21 | inactive: -35% | – |
| Cn1c(=S)c2[nH]c(SCC3CCCO3)nc2n(C)c1=O (configuration not stated) | – | inconclusive: 3.16 µM [activator, single point] |
| Cc1cccc(N(CC(=O)NC2CCCCC2)C(=O)c2csnn2)c1 | – | inconclusive: 28.2 µM [activator, single point] |
| Cc1cc(C)cc(NC(=O)Cn2c(=O)oc3cc(S(=O)(=O)N4CCC(C)CC4)ccc32)c1 | inactive: -45.3% | – |
| Cc1ccc2nc(N(CCCN(C)C)C(=O)c3ccc4ncsc4c3)sc2c1 | inactive: -51% | – |

| SMILES | activation | Potency |
| --- | --- | --- |
| CCC1CCC(N2CCN(c3ccccc3F)CC2)CC1 (configuration not stated) | – | inconclusive: 3.55 µM [activator, single point] |
| FC(F)(F)c1cnc(-c2cnc(-c3cccnc3)nc2)c(Cl)c1 | – | inconclusive: 28.2 µM [activator, single point] |
| C/C(=C\c1ccc(C)o1)C(=O)c1c(C)cc(C)[nH]c1=O | inactive: -20.9% | – |
| COc1cc(OC)cc(C(=O)Nc2ccc3nc4n(c(=O)c3c2)CCCCC4)c1 | – | inconclusive: 1 µM [activator, partial curve, poor fit] |
| Cn1c(N)c(C(=O)CSc2nnc(C3CC3)n2Cc2ccccc2)c(=O)[nH]c1=O | inactive: 14.9% | – |
| O=C(Nc1ccccc1C(=O)N1CCN(c2cccc(Cl)c2)CC1)C1=CSCCO1 | inactive: 1.42% | – |
| COc1ccc(CNC(=O)CCCn2nc(C)c3c(C)n(-c4ccc(C)cc4)nc3c2=O)cc1 | inconclusive: 54.7% [activator] | – |
| Cc1c(C(=O)O)sc(S(=O)(=O)N2CCN(C(=O)Cc3ccc(F)cc3)CC2)c1C(=O)O | – | inconclusive: 31.6 µM [activator, single point] |
| Cc1ccc2[nH]cc(/C=C/c3cc[n+](C)cc3)c2c1 | inactive: -69.2% | – |
| CCOc1ccc(/C=N/NC(=O)C(OC)c2ccccc2)cc1 (configuration not stated) | inactive: -7.23% | – |
| O=C(NNC(=O)C1CCN(Cc2cccc(F)c2)CC1)c1cccs1 | – | inconclusive: 5.01 µM [activator, single point] |
| Cc1cc(=O)[nH]c2ccc(S(=O)(=O)Nc3ccc(O)cc3)cc12 | – | inconclusive: 0.501 µM [activator, full curve, poor fit] |
| COc1ccc(/C=C/C(=O)NCC(=O)N/N=C(/C)c2ccc(Cl)cc2)cc1 | inconclusive: -23.9% [activator] | – |
| Cc1c(C(=O)N(Cc2ccccc2)C(C)C)cnn1-c1ccccc1 | – | inconclusive: 5.01 µM [activator, single point] |
| Cc1ccc(C)c(S(=O)(=O)NCC(c2ccco2)N2CCc3ccccc3C2)c1 (configuration not stated) | inactive: -19.2% | – |
| O=C(NC1CC1)C1CCN(c2ncccn2)CC1 | – | inconclusive: 31.6 µM [activator, single point] |
| CC(=O)N1c2ccc(S(=O)(=O)NCc3ccco3)cc2CC1C (configuration not stated) | – | inconclusive: 8.91 µM [activator, partial curve, poor fit] |
| C/C(CCc1ccc2c(c1)OCO2)=N\N=C1\NC(=O)CC(C(=O)Nc2ccccc2F)S1 (configuration not stated) | inactive: -1.19% | – |
| NC(=O)c1ccsc1NC(=O)CCc1ccccc1 | inactive: -10.4% | – |
| CC(C)(CNC(=O)Cc1ccc(Cl)cc1Cl)N1CCCCC1 | – | inconclusive: 22.4 µM [activator, single point] |
| CC(=O)c1cccc(CN2CCCC(CCC(=O)NCc3ccc(F)c(F)c3)C2)c1 (configuration not stated) | – | inconclusive: 11.2 µM [activator, single point] |
| O=C(CSc1nnc2ccccn12)Nc1ccccc1C(=O)O | – | inconclusive: 2.51 µM [activator, single point] |
| COc1ccccc1CN1CCNC(=O)C1CC(=O)O (configuration not stated) | – | inconclusive: 12.6 µM [activator, single point] |
| CCCCCCCCC(=O)N/N=C(\C)c1ccc(O)cc1O | inactive: -14.8% | – |

Quoted at random: three records from the list

| SMILES | activation | Potency |
| --- | --- | --- |
| O=C(Nc1ccccc1C(=O)N1CCN(c2cccc(Cl)c2)CC1)C1=CSCCO1 | inactive: 1.42% | – |
| CCOc1ccc(/C=N/NC(=O)C(OC)c2ccccc2)cc1 (configuration not stated) | inactive: -7.23% | – |
| O=C(CSc1nnc2ccccn12)Nc1ccccc1C(=O)O | – | inconclusive: 2.51 µM [activator, single point] |

— PubChem BioAssay AID624291 (National Center for Advancing Translational Sciences (NCATS), 2012)
